Laboratory results published in the supplement of paper PMC12819154, “High-throughput peptide-centric local stability assay extends protein–ligand identification to membrane proteins, tissues and bacteria” (Nature Structural & Molecular Biology, 2025).
The list shows a part of the results. Most values lie at the level of the controls, where differences are scatter.

Chains of the proteins cited; added tags and fusions are not shown. Lines headed by an entry give the natural chain unless they say otherwise; changes in a name come on top.
UniProt Q8VEK0: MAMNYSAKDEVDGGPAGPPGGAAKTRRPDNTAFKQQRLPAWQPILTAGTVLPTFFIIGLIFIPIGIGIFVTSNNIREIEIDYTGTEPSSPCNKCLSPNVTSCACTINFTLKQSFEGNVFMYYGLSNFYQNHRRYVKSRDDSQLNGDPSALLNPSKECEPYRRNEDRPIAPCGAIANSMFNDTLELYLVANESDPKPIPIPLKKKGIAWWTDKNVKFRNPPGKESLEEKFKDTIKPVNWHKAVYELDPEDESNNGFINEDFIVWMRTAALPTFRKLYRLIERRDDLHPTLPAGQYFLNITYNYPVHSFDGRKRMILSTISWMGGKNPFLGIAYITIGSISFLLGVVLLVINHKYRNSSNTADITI
UniProt Q8R5M0: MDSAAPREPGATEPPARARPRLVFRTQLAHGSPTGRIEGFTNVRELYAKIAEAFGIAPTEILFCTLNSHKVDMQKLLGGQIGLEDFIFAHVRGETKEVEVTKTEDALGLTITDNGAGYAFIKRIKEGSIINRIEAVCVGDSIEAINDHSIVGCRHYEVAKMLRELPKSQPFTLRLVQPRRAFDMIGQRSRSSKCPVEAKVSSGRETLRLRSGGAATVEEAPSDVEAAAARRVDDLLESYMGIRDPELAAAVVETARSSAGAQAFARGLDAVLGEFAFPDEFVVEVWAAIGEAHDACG
UniProt Q8R5C8: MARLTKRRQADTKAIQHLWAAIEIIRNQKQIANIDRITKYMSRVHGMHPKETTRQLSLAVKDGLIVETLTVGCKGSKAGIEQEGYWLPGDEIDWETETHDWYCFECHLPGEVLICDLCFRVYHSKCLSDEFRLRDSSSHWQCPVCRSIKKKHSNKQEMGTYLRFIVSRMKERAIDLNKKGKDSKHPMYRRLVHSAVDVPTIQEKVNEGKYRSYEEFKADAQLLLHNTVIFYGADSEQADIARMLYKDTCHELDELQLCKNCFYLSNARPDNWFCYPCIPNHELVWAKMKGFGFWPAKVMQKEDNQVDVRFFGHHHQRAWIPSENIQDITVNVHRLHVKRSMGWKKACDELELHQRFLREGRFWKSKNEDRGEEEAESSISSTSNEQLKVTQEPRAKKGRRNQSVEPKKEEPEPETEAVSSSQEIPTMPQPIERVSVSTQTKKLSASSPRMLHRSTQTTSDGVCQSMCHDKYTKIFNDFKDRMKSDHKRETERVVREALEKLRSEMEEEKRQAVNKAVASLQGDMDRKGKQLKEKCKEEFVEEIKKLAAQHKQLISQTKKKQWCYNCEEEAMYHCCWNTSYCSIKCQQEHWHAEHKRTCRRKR
UniProt Q8R5A6: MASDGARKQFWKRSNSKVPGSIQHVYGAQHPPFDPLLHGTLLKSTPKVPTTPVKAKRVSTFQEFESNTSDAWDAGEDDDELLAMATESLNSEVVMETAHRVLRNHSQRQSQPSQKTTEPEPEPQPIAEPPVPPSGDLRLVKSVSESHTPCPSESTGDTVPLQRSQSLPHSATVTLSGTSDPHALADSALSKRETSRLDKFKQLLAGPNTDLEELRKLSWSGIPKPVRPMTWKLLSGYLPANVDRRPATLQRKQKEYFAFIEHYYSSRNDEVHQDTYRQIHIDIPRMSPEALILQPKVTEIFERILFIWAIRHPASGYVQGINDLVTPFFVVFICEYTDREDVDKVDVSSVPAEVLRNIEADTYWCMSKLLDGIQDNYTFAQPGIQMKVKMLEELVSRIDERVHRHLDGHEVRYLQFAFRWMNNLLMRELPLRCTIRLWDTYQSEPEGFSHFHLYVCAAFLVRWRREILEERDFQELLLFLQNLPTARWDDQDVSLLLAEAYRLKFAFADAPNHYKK
UniProt Q8VCW8: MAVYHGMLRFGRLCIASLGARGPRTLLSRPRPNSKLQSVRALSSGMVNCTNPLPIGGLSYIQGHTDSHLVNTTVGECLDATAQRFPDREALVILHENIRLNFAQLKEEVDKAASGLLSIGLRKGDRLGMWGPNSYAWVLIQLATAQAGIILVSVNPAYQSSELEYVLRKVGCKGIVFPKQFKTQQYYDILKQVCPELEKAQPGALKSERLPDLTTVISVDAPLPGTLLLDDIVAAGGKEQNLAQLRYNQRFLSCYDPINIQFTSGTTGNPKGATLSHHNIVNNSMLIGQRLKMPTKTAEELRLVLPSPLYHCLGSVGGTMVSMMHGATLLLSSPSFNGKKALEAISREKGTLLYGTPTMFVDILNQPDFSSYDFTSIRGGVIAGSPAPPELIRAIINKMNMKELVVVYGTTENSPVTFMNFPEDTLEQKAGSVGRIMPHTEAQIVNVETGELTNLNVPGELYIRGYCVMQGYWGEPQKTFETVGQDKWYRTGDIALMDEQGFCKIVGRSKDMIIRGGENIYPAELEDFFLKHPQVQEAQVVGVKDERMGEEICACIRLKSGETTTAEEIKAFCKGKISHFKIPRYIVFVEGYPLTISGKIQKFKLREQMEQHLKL
UniProt Q8VC70: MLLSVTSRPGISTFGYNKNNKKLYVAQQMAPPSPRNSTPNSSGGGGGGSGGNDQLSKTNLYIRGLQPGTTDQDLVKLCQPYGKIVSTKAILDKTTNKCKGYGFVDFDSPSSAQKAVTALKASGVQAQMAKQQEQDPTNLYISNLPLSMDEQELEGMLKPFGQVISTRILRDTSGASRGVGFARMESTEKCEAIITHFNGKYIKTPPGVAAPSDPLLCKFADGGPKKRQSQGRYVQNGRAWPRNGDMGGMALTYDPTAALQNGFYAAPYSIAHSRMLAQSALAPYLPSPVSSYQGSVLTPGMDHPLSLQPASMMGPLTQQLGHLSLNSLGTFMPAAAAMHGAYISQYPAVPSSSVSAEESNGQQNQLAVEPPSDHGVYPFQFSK
UniProt Q8R5K4: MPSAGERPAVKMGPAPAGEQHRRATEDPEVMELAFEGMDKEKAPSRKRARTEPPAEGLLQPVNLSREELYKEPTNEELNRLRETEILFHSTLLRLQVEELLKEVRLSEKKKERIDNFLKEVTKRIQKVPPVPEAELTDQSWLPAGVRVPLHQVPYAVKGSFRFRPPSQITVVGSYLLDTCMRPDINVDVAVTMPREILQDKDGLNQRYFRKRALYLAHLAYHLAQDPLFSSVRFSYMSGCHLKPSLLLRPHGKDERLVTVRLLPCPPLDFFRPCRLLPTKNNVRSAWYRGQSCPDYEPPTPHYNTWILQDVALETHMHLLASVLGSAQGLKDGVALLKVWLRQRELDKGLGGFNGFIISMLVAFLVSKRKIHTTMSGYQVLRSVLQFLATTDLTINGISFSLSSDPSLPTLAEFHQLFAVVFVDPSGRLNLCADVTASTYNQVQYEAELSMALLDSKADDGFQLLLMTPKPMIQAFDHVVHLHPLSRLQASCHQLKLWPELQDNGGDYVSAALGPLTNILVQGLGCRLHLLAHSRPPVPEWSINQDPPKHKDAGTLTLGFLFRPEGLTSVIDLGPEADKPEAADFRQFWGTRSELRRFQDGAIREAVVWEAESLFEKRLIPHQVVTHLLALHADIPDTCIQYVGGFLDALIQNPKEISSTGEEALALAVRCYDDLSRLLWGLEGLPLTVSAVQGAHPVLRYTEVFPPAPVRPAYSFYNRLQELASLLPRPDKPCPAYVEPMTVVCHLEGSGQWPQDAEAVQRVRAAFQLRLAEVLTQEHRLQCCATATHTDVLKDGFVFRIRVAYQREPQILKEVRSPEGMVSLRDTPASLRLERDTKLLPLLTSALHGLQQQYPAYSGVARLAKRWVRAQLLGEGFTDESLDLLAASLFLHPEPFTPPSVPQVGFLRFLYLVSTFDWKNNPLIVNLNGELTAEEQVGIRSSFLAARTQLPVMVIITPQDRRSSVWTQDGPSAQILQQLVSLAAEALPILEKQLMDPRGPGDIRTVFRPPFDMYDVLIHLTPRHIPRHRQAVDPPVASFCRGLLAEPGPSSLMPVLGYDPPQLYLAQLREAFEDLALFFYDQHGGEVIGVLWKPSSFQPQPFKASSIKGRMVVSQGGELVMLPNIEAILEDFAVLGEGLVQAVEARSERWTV
UniProt Q8VDZ4: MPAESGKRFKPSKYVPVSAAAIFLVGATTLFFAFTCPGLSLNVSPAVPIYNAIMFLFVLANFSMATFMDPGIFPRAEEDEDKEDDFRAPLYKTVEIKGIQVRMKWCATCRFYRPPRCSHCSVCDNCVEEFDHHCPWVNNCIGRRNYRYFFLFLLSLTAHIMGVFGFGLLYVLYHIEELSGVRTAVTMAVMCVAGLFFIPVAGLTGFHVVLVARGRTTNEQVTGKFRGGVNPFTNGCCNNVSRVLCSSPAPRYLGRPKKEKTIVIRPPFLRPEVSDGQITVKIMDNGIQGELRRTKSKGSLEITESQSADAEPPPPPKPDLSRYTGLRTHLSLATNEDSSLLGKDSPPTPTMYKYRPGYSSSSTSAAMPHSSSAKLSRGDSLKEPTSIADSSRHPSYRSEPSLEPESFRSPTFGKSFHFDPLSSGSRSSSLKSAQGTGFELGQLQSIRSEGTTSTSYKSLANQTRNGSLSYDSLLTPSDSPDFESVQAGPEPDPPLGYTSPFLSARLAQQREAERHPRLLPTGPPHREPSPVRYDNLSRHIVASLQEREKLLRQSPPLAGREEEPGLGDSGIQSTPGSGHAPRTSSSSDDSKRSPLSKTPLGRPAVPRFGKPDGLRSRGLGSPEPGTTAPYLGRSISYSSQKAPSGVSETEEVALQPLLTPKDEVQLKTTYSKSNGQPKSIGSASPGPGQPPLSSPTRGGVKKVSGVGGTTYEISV
UniProt Q8VD63: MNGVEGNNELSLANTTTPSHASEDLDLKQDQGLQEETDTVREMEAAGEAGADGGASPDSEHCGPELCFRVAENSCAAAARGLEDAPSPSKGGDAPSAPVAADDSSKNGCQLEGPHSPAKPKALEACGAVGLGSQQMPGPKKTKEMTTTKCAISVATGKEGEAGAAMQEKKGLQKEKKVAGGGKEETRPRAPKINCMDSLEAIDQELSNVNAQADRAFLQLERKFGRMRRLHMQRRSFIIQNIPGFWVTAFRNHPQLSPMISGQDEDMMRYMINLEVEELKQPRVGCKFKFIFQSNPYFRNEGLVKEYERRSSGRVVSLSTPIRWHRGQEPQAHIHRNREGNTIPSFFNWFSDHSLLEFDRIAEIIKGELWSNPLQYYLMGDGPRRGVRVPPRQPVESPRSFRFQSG
UniProt Q8VBT0: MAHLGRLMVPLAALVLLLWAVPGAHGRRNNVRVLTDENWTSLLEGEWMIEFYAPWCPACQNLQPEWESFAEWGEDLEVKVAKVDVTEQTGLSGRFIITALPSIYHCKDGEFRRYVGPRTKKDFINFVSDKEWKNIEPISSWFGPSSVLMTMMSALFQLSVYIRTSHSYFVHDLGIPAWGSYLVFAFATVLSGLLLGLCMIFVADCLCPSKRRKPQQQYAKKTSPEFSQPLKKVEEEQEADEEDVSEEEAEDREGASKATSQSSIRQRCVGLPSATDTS
UniProt Q8R3N6: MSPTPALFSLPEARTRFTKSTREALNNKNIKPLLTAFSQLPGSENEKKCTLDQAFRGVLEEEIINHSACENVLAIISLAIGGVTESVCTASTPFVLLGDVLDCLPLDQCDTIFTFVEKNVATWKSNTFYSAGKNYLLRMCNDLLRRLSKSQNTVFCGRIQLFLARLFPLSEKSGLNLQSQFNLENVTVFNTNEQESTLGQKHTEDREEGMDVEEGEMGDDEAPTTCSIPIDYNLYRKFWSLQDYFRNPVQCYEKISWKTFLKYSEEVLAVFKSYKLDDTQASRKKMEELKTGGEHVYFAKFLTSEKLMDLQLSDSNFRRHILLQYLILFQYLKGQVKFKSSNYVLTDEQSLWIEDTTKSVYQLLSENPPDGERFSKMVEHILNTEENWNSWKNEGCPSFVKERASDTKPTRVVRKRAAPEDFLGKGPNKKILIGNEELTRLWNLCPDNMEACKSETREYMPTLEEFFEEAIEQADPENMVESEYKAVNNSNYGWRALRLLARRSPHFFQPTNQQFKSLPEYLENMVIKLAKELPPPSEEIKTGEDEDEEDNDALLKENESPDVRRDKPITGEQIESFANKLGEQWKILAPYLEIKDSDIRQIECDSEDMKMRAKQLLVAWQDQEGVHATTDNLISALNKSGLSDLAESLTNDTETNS
UniProt Q8R4V5: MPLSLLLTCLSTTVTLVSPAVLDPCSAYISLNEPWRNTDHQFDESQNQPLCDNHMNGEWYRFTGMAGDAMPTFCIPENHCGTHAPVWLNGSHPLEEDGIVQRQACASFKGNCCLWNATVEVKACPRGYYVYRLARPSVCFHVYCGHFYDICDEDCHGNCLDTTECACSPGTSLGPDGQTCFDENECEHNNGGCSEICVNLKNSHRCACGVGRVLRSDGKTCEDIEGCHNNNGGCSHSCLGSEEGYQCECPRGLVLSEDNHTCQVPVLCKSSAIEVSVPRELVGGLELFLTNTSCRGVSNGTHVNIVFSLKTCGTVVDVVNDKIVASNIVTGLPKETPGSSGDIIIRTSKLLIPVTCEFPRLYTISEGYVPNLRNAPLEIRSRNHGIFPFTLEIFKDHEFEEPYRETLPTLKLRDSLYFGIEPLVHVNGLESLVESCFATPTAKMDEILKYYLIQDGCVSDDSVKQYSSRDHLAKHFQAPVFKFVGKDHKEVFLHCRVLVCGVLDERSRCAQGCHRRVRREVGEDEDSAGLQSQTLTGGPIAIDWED

compound: CN[C@@H]1C[C@H]2O[C@@](C)([C@@H]1OC)n1c3ccccc3c3c4c(c5c6ccccc6n2c5c31)C(=O)NC4 [staurosporine]; assay: log2 fold change of tryptic peptide abundance, ligand vs vehicle (limited proteolysis) (log2 ratio); higher = more trypsin-susceptible (destabilized); settings: ligand concentration: 20 uM; sample: mouse liver crude lysate; replicate design: treated separately

Row | Target | log2 fold change
1 | UniProt Q8R3Y8 (peptide sequence: QLGELLTDGVR, peptide start residue: 329) | -0.217
2 | UniProt Q8VEK0 (peptide sequence: TAALPTFR, peptide start residue: 266) | -0.4
3 | UniProt Q8R480 (peptide sequence: LQDDDIETTKVEMLR, peptide start residue: 622) | -0.039
4 | UniProt Q8R4U0 (peptide sequence: RFESEDDIDALAFGK, peptide start residue: 2500) | -0.166
5 | UniProt Q8R5M0 (peptide sequence: SSAGAQAFAR, peptide start residue: 257) | 0.00711
6 | UniProt Q8R5C8 (peptide sequence: AWIPSENIQDITVNVHR, peptide start residue: 318) | 0.214
7 | UniProt Q8R4N0 (peptide sequence: GSMIDMPLLK, peptide start residue: 314) | 0.213
8 | UniProt Q8R3T5 (peptide sequence: SQWMLEQLR, peptide start residue: 78) | -0.211
9 | UniProt Q8VEH3 (peptide sequence: DLAGALDEK, peptide start residue: 133) | -0.129
10 | UniProt Q8R5A6 (peptide sequence: STPKVPTTPVK, peptide start residue: 44) | -0.447
11 | UniProt Q8VEB2 (peptide sequence: QQWYAQQHGK, peptide start residue: 373) | -0.317
12 | UniProt Q8VDS3 (peptide sequence: GKVEYLVK, peptide start residue: 24) | 0.332
13 | UniProt Q8VCW8 (peptide sequence: KALEAISR, peptide start residue: 340) | -0.17
14 | UniProt Q8R2V5 (peptide sequence: NFPDISKVK, peptide start residue: 54) | 0.471
15 | UniProt Q8VC70 (peptide sequence: YIKTPPGVAAPSDPLLCK, peptide start residue: 201) | 0.198
16 | UniProt Q8R5K4 (peptide sequence: MGPAPAGEQHR, peptide start residue: 12) | -0.875

Row | Target | log2 fold change
17 | UniProt Q8VDZ4 (peptide sequence: SISYSSQK, peptide start residue: 634) | -0.246
18 | UniProt Q8VD63 (peptide sequence: VAENSCAAAAR, peptide start residue: 70) | -0.217
19 | UniProt Q8VBT0 (peptide sequence: TSPEFSQPLKK, peptide start residue: 222) | 0.153
20 | UniProt Q8VCH0 (peptide sequence: ARDCLIPMGITSENVAER, peptide start residue: 174) | -0.101
21 | UniProt Q8VDP4 (peptide sequence: RLTPLHLEMQR, peptide start residue: 894) | -0.122
22 | UniProt Q8R5C5 (peptide sequence: GLLTIRYPMEHGVVR, peptide start residue: 67) | -0.101
23 | UniProt Q8VCT9 (peptide sequence: LTSLDDFTR, peptide start residue: 53) | -0.204
24 | UniProt Q8R5M8 (peptide sequence: DFRPLKDSR, peptide start residue: 91) | 0.114
25 | UniProt Q8VE94 (peptide sequence: ETEATWTK, peptide start residue: 153) | -0.174
26 | UniProt Q8VCD7 (peptide sequence: EGADCIPLSHGHQAGK, peptide start residue: 481) | -0.34
27 | UniProt Q8VE92 (peptide sequence: YEREQYVDR, peptide start residue: 343) | 0.243
28 | UniProt Q8R3N6 (peptide sequence: TGGEHVYFAK, peptide start residue: 291) | 0.319
29 | UniProt Q8R4V5 (peptide sequence: LLIPVTCEFPR, peptide start residue: 350) | -0.168
30 | UniProt Q8R313 (peptide sequence: KNNIFAQFR, peptide start residue: 766) | 0.327
31 | UniProt Q8VC52 (peptide sequence: TLFVSGLPVDIKPR, peptide start residue: 26) | -0.0517

A second format for some results above:
Row	Target	log2 fold change
22	UniProt Q8R5C5 (peptide sequence: GLLTIRYPMEHGVVR, peptide start residue: 67)	-0.101
23	UniProt Q8VCT9 (peptide sequence: LTSLDDFTR, peptide start residue: 53)	-0.204
